Values of other authors in patent US8877765B2, “Highly soluble pyrimido-dione-quinoline compounds and their use in the treatment of cancer” (The United States of America as represented by the …, priority 2006, dated 2014).
Some results were stated once for a whole list of compounds, not compound by compound.

Conditions: previously characterized, U.S. Ser. No. 10/545,547; cited from earlier work

Water solubility, non-water soluble:
O=c1nc2n(-c3ccc(Cl)cc3)c3ccc([N+](=O)[O-])cc3cc-2c(=O)[nH]1 [Compound 3, 10-(4-chloro-phenyl)-7-nitro-10H-pyrimido[4,5-b]quinoline-2,4-dione]
Cc1ccc(-n2c3nc(=O)[nH]c(=O)c-3cc3cc([N+](=O)[O-])ccc32)cc1 [Compound 2, 10-(4-methyl-phenyl)-7-nitro-10H-pyrimido[4,5-b]quinoline-2,4-dione]
O=c1nc2n(-c3cccc(Cl)c3)c3ccc([N+](=O)[O-])cc3cc-2c(=O)[nH]1 [Compound 4, 10-(3-chloro-phenyl)-7-nitro-10H-pyrimido[4,5-b]quinoline-2,4-dione]
